According to publication PMC11932694:
Results are given in words; binding and its absence hold for the method and conditions named. In cells and extracts the contact can be indirect. Where a sequence is shown, tags or fusion partners need not be part of it.

By UniProt entry, the sequences of proteins in these tests, tags left out.
UniProt Q86VP6: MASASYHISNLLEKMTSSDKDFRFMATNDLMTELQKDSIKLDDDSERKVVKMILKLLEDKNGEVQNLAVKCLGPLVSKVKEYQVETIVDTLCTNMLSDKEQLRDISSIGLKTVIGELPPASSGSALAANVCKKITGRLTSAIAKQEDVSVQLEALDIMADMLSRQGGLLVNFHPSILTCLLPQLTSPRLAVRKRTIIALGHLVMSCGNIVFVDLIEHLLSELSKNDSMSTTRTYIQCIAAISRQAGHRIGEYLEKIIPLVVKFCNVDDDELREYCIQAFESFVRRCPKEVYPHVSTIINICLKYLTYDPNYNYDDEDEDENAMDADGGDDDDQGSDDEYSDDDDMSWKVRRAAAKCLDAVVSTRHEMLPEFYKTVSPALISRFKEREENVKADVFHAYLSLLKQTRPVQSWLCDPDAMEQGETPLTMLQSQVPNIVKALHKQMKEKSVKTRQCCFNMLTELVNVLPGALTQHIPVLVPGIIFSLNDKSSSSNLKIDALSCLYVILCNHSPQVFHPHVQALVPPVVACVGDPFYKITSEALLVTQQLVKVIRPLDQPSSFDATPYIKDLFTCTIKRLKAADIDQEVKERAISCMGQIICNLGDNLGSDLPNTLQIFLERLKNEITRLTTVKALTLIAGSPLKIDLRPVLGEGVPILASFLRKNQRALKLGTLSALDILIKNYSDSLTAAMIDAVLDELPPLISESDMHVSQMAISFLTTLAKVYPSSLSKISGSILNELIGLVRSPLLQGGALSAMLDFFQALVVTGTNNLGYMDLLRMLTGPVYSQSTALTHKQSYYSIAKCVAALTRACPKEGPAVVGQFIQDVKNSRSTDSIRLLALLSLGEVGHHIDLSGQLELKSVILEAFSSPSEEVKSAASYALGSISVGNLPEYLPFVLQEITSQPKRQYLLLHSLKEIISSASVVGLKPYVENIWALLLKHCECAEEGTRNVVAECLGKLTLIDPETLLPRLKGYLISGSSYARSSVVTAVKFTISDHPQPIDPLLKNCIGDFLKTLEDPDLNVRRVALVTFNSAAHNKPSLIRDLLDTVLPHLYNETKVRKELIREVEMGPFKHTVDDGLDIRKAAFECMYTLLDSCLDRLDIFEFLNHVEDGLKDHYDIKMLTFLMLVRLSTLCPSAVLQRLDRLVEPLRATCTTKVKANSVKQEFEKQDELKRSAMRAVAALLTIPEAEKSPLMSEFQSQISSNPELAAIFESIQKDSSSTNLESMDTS

Experiments:
Experiment in all cases: co-IP; HEK293T cells co-transfected with a Flag-tagged protein and GFP-tagged ORMDL3 (whole or truncated); lysates immunoprecipitated with anti-Flag antibody and protein A/G beads, blots with anti-GFP and anti-Flag; in Figure 5B with or without poly(I:C) co-transfection
[1] = biological target: T1, Flag-MDA5 (UniProt Q9BYX4)
T1 sequence: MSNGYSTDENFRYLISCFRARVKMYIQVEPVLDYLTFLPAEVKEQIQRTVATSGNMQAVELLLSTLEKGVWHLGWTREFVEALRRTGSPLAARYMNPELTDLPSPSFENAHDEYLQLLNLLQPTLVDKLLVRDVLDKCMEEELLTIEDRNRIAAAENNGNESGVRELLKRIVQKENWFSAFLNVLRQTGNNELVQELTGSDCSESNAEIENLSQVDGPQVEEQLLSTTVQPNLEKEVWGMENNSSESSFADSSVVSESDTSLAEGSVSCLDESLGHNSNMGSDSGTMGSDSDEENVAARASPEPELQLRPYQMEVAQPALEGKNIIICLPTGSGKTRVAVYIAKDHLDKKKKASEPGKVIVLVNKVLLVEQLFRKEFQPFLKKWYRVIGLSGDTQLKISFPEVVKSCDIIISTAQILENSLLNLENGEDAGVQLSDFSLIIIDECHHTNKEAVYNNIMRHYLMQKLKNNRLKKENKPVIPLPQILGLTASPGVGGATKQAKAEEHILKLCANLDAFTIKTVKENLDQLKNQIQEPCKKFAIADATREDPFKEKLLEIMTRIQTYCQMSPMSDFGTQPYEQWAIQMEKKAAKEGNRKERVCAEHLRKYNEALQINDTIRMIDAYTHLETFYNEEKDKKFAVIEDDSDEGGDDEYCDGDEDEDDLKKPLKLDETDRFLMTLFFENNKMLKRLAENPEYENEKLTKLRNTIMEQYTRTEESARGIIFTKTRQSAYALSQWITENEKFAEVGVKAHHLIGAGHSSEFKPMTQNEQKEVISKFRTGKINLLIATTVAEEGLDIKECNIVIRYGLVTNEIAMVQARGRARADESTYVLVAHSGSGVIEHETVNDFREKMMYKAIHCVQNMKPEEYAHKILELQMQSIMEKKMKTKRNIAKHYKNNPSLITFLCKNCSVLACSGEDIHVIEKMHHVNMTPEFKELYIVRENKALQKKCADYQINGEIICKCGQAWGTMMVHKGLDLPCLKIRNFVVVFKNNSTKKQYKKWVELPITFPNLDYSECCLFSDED

[2] = biological target: T2, Flag-IRF3 (UniProt Q14653)
T2 sequence: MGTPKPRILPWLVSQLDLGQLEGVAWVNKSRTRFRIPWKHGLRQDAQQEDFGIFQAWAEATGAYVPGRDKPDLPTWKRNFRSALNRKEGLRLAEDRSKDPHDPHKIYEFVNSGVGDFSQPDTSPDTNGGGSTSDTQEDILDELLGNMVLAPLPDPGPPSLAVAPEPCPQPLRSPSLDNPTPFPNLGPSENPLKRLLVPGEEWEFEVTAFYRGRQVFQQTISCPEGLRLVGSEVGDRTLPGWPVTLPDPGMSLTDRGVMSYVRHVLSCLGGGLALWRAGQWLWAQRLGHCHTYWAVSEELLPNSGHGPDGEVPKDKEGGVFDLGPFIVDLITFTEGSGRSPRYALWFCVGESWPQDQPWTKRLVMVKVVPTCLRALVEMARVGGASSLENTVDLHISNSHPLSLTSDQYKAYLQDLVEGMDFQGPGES

[3] = biological target: CAND1 (UniProt Q86VP6)
[4] = biological target: T3, Flag-RIG-I (human) (UniProt O95786)
T3 sequence: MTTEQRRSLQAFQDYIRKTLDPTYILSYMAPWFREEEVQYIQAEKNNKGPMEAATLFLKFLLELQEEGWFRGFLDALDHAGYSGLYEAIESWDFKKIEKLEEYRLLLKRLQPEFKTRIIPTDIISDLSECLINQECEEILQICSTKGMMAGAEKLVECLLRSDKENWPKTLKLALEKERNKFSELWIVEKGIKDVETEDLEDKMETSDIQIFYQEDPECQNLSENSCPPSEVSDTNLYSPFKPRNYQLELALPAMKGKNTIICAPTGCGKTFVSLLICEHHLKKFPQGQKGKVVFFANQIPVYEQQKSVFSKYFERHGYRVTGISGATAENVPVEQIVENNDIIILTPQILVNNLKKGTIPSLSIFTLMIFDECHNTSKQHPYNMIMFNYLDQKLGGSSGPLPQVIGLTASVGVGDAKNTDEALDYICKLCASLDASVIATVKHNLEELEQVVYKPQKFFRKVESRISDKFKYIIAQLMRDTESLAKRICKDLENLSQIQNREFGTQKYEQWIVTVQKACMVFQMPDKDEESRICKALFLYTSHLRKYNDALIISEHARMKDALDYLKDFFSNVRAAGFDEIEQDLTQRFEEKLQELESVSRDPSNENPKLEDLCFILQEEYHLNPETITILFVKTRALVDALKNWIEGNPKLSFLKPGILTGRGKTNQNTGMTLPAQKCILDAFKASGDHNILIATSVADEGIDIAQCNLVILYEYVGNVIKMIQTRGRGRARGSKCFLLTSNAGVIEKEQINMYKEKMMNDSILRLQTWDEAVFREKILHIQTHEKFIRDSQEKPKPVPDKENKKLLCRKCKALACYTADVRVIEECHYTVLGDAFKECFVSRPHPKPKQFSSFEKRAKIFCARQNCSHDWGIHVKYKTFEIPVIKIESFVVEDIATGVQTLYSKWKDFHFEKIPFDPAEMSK

binding [1]: no binding | binding [2]: no binding | binding [3]: no binding | binding [4]: no binding
B1: ORMDL3-GFP (protein, UniProt Q8N138 1-153)
chain: MNVGTAHSEVNPNTRVMNSRGIWLSYVLAIGLLHIVLLSIPFVSVPVVWTLTNLIHNMGMYIFLHTVKGTPFETPDQGKARLLTHWEQMDYGVQFTASRKFLTITPIVLYFLTSFYTKYDQIHFVLNTVSLMSVLIPKLPQLHGVRIFGINKY
